Reference: the supplement of paper PMC12823440, “Inhibitors supercharge kinase turnover through native proteolytic circuits” (Nature, 2025)
The other results are listed elsewhere or left out. Hit calls seldom repeat between salt and free forms of one compound.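 Kinases were expressed as nanoluciferase fusions in K562 cells and luminescence was read every 4 h between 2 and 18 h as percent of control, DMSO set to 100% and a positive control to 0%. A time point counts as decreased when the signal drops significantly (2 sigma). The hit call is the authors' own, does not follow from the count of time points alone, and its rule is not shown.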

The chains behind the UniProt entries cited, without tags or fusion partners. Where a name states a change or a piece, a line headed by the entry shows the natural chain unless it says otherwise.
UniProt Q14289, whole entry, looked up: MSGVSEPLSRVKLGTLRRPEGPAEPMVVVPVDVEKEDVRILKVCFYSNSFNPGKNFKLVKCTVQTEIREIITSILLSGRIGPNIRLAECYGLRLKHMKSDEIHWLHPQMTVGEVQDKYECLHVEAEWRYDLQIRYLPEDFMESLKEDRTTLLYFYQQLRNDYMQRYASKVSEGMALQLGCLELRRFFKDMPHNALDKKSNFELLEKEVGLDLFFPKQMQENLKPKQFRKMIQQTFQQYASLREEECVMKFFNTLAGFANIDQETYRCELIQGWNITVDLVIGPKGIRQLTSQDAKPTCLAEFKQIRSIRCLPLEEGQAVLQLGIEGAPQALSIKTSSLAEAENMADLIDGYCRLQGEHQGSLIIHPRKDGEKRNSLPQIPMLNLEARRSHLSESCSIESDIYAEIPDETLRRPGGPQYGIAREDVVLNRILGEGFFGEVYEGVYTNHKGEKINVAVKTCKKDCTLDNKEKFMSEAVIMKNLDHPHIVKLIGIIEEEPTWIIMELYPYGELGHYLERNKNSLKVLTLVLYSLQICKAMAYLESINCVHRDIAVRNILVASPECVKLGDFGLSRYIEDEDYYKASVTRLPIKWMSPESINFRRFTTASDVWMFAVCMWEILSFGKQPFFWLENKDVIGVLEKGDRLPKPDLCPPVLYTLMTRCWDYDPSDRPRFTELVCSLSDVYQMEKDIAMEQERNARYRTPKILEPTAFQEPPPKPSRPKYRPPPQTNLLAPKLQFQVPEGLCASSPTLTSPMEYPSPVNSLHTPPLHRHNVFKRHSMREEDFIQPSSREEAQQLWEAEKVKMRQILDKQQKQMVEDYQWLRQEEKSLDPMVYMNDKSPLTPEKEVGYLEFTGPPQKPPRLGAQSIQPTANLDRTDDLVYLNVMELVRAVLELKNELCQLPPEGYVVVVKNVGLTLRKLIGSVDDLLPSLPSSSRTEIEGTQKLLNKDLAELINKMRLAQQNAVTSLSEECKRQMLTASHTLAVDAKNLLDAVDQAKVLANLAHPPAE
UniProt P07949, whole entry, looked up: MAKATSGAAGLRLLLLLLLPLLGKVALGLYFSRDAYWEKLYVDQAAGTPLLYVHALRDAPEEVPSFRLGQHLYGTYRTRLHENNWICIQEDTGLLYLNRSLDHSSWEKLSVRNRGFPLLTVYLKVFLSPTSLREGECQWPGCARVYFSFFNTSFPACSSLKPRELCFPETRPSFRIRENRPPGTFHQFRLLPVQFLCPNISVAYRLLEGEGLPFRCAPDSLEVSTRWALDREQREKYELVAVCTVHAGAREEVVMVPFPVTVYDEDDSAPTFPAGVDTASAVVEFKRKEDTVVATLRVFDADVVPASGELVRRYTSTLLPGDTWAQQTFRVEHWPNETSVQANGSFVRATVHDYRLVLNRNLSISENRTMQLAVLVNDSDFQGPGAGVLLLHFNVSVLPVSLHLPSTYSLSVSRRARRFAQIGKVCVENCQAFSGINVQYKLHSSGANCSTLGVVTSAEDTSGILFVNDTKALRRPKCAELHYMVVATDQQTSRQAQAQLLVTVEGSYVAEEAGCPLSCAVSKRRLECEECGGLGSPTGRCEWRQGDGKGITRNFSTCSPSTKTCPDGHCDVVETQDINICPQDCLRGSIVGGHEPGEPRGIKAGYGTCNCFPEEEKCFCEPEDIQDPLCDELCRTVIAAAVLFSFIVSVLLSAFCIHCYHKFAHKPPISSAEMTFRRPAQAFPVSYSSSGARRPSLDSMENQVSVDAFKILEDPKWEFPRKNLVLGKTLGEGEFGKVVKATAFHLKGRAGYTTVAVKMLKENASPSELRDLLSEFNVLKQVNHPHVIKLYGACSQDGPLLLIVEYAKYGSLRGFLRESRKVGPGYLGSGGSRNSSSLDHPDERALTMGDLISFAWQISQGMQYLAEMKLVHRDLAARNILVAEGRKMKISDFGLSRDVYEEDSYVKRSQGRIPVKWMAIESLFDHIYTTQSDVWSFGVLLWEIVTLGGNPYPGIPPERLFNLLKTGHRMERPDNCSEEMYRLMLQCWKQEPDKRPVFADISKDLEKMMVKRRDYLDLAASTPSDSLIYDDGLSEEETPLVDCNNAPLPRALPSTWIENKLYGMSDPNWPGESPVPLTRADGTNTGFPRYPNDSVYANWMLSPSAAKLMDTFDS
UniProt P07949, whole entry M918T, looked up: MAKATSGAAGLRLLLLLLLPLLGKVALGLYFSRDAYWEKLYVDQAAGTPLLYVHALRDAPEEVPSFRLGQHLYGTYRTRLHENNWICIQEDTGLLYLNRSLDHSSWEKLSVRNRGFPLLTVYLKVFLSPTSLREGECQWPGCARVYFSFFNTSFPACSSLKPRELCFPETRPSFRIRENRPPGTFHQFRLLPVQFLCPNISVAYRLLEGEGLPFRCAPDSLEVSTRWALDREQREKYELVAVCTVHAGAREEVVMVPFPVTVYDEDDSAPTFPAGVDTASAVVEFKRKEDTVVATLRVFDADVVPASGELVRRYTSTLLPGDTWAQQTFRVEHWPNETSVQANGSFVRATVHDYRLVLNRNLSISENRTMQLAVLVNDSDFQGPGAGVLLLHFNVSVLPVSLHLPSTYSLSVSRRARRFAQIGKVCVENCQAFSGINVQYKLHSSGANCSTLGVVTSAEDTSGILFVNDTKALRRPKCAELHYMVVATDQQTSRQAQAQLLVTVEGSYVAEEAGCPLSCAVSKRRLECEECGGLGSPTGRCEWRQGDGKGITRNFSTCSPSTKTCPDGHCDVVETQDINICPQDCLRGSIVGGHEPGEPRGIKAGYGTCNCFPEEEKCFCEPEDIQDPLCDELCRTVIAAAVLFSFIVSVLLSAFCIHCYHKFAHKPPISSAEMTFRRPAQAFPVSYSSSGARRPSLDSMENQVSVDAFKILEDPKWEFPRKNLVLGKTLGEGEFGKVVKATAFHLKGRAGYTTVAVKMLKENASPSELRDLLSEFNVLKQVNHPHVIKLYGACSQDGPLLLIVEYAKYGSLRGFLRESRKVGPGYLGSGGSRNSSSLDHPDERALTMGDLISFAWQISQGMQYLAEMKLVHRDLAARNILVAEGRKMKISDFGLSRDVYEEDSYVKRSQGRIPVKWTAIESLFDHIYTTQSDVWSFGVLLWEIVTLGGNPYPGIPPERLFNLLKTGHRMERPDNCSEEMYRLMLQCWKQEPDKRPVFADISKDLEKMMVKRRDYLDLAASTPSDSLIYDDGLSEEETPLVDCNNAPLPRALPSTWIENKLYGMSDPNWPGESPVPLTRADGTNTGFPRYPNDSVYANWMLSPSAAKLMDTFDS
UniProt Q13546: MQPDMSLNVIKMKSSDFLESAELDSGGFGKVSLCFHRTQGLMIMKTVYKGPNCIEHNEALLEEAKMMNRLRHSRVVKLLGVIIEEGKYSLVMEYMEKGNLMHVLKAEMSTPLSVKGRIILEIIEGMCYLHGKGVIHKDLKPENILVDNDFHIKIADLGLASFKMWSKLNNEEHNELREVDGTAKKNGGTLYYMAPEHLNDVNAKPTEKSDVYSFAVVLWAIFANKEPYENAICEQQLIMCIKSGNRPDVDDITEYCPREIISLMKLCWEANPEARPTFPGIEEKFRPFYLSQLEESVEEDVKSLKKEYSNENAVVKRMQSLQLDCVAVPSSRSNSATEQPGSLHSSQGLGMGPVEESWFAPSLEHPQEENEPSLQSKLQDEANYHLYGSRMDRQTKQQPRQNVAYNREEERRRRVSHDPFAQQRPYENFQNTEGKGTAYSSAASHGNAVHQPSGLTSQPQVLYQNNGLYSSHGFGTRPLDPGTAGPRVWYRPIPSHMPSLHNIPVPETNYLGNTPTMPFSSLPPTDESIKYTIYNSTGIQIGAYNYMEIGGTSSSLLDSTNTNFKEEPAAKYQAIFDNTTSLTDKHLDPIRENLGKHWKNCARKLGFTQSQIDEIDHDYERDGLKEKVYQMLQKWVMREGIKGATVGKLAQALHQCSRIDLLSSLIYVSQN
UniProt Q15208: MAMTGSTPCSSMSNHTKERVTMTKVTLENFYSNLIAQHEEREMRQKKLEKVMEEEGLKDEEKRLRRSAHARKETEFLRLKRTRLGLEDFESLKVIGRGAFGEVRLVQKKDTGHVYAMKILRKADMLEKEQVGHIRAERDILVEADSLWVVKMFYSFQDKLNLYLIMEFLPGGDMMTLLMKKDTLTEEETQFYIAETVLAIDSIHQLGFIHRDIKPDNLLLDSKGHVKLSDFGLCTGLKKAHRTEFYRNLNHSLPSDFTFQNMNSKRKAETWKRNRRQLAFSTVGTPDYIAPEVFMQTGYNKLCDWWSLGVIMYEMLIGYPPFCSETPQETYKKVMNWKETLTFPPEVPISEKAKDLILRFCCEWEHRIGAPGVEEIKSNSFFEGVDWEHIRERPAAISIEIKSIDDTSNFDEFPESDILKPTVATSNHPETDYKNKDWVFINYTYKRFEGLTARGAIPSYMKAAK
UniProt P29597: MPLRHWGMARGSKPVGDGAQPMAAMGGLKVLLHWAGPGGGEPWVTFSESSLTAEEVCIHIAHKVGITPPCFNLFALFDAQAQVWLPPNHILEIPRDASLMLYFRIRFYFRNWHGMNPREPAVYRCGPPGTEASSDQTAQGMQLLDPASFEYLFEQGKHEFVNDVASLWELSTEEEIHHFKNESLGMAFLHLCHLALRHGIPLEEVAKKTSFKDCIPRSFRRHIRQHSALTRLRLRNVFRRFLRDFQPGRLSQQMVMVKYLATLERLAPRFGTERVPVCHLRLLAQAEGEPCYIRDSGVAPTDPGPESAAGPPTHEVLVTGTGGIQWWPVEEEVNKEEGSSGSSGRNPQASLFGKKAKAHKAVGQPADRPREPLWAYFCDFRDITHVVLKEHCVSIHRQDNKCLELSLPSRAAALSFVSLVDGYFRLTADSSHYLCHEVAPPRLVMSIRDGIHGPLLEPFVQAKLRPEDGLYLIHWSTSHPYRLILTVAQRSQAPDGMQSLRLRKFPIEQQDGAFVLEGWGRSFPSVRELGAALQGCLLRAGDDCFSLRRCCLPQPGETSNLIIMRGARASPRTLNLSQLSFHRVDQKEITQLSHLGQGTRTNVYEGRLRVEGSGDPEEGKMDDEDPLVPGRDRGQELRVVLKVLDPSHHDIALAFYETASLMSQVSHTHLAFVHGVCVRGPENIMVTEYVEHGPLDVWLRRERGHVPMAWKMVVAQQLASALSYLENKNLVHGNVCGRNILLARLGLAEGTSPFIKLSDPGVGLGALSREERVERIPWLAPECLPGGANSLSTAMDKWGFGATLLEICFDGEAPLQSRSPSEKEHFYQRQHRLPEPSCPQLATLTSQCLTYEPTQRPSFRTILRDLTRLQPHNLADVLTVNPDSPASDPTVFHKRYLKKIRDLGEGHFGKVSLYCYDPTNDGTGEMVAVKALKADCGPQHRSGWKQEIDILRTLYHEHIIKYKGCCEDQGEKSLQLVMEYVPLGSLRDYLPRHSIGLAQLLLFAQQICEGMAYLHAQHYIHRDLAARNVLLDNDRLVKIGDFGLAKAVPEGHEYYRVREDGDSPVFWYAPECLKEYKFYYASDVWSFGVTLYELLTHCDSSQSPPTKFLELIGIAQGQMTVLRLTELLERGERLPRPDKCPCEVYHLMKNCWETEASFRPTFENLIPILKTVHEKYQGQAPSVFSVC

Legend:
Experiment in all cases: number of time points (of 5) at which kinase-Nluc abundance scored as decreased, DMSO-normalised (count); higher = more persistent destabilization
Conditions in all cases: K562; 2-18 h
PRKCA = PRKCA (UniProt P17252)
PTK2 = PTK2 (UniProt Q05397)
PTK2B = PTK2B (UniProt Q14289)
RAF1 = RAF1 (UniProt P04049)
[1] = molecular target: RAF1_S257L (clone: RAF1_mut) (UniProt P04049)
RET = RET (UniProt P07949)
[2] = molecular target: RET_M918T (clone: RET_mut) (UniProt P07949)
RIOK1 = RIOK1 (UniProt Q9BRS2)
RIPK1 = RIPK1 (UniProt Q13546)
RIPK2 = RIPK2 (UniProt O43353)
ROR2 = ROR2 (UniProt Q01974)
RPS6KA1 = RPS6KA1 (UniProt Q15418)
SPHK1 = SPHK1 (UniProt Q9NYA1)
SRC = SRC (UniProt P12931)
STK24 = STK24 (UniProt Q9Y6E0)
STK38 = STK38 (UniProt Q15208)
SYK = SYK (UniProt P43405)
TEC = TEC (UniProt P42680)
TYK2 = TYK2 (UniProt P29597)
ULK3 = ULK3 (UniProt Q6PHR2)

SMILES	number of time points (PRKCA)	number of time points (PTK2)	number of time points (PTK2B)	number of time points (RAF1)	number of time points [1]	number of time points (RET)	number of time points [2]	number of time points (RIOK1)	number of time points (RIPK1)	number of time points (RIPK2)	number of time points (ROR2)	number of time points (RPS6KA1)	number of time points (SPHK1)	number of time points (SRC)	number of time points (STK24)	number of time points (STK38)	number of time points (SYK)	number of time points (TEC)	number of time points (TYK2)	number of time points (ULK3)
Brc1c(Br)c(Br)c2n[nH]nc2c1Br (10 µM)	0	0	0	0	0	0	0	0	0	0	0	0	0	0	0	0	0	0	0	0
Nc1ncnc2c1c(-c1cccc(OCc3ccccc3)c1)cn2C1CC(CN2CCCC2)C1 (stereo not given) (2.5 µM)	0	0	0	0	0	0	0	0	0	0	0	0	0	0	0	0	0	0	0	0
CC(C)CC(=O)Nc1n[nH]c2c1CN(C(=O)C1CCN(C)CC1)C2(C)C (2.5 µM)	0	0	0	2	3	0	2	0	3	0	0	0	2	0	0	0	0	0	2	2
CCCCC[C@H](O)CC(=O)CCc1ccc(O)c(OC)c1 [[6]-Gingerol] (10 µM)	0	0	0	0	0	0	0	0	0	0	0	0	0	0	0	0	0	0	0	0
COc1cc(OC)cc(N(CCNC(C)C)c2ccc3ncc(-c4cnn(C)c4)nc3c2)c1 [Erdafitinib] (2.5 µM)	0	0	0	0	4	0	0	0	0	0	0	0	0	0	0	0	0	0	0	0
CC1(C)CC=C(c2nc(C3CC(C)(C)OC(C)(C)C3)ccc2NC(=O)c2nc(C#N)c[nH]2)CC1 [Edicotinib] (2.5 µM)	0	0	0	0	0	0	0	0	0	0	0	0	0	0	0	0	0	0	0	0
Cc1[nH]c(/C=C2\C(=O)Nc3ccc(S(=O)(=O)Cc4c(Cl)cccc4Cl)cc32)c(C)c1C(=O)N1CCC[C@@H]1CN1CCCC1 (2.5 µM)	0	0	0	0	0	0	0	0	0	0	0	0	0	0	0	0	0	0	0	0
COc1cc2ncnc(Nc3cccc(Cl)c3F)c2cc1OC(=O)N1CCN(C)C[C@H]1C [Zorifertinib] (10 µM)	0	0	0	0	0	0	0	0	0	0	0	0	0	0	0	0	0	0	0	0
CN(C)CCOc1ccc(-c2nc(-c3ccncc3)c(-c3ccc4c(c3)CC/C4=N\O)[nH]2)cc1 (10 µM)	0	0	0	0	0	0	0	0	0	2	0	0	0	0	0	0	0	0	0	0
CC(C)Oc1cc(Nc2nc(N[C@@H](C)c3ccc(F)cn3)ncc2Cl)n[nH]1 (10 µM)	0	0	0	0	1	0	0	0	0	0	0	0	0	0	0	0	0	0	0	0
O=c1oc2ccccc2c(O)c1Cc1c(O)c2ccccc2oc1=O [Dicoumarol] (10 µM)	0	0	0	0	0	0	0	0	0	0	0	0	0	0	0	0	0	0	0	0
Cc1ccc2c(Nc3ccc(Cl)cc3)nccc2c1Nc1ncccc1-c1ncnc2nc[nH]c12 [Raf inhibitor 1] (2.5 µM)	0	0	0	0	0	0	0	0	0	0	0	0	0	0	0	0	0	0	0	0
CCN(CCO)CCCOc1ccc2c(Nc3cc(CC(=O)Nc4cccc(F)c4)[nH]n3)ncnc2c1 [Barasertib-HQPA] (10 µM)	0	0	0	0	0	0	0	0	0	0	0	0	0	0	0	0	0	0	0	0
CCCS(=O)(=O)Nc1ccc(F)c(C(=O)c2c[nH]c3ncc(Cl)cc23)c1F (10 µM)	0	0	0	0	1	0	0	0	0	0	0	0	0	0	0	0	0	0	3	0
CC(C)(C)n1nc(Cc2cccc3ccccc23)c2c(N)ncnc21 (10 µM)	0	0	0	0	0	0	0	0	0	0	0	0	0	0	0	0	0	0	0	0
O=c1cc(N2CCOCC2)oc2c(-c3ccccc3)cccc12 (10 µM)	0	0	0	0	0	0	0	0	0	0	0	0	0	0	0	0	0	0	0	0
Cc1c(C(=O)N2CCOc3ccc(-c4ccc(N)nc4)cc3C2)ccc(S(C)(=O)=O)c1F (10 µM)	0	1	0	0	0	0	2	0	0	0	0	0	0	0	0	0	0	0	0	0
O=C(NOC[C@H](O)CO)c1ccc(F)c(F)c1Nc1ccc(I)cc1F (2.5 µM)	0	0	0	0	0	0	0	0	0	0	0	0	0	0	0	0	0	0	0	0
COc1c(CC=C(C)C)c(O)cc2oc(=O)c(-c3ccc(O)cc3O)cc12 [Glycycoumarin] (10 µM)	0	0	0	0	0	0	0	0	0	0	0	0	0	0	0	0	0	0	0	0
CC(C)(/C=C(\C#N)C(=O)N1CCC[C@@H](n2nc(-c3ccc(Oc4ccccc4)cc3F)c3c(N)ncnc32)C1)N1CCN(C2COC2)CC1 (2.5 µM)	0	0	0	0	0	0	0	0	0	0	0	0	0	0	0	0	0	0	0	0
CNC(=O)c1cccc(-c2ccc3c(N4CCOC[C@@H]4C)nc(N4CCOC[C@@H]4C)nc3n2)c1 [Vistusertib] (2.5 µM)	0	0	0	4	2	4	5	0	4	3	0	0	0	0	0	2	0	0	4	3
N#C/C(=C\c1ccc(O)c(O)c1)C(=O)NCCCc1ccccc1 (10 µM)	0	0	0	0	0	0	0	0	0	0	0	0	0	0	0	0	0	0	0	0
C/C=C(/C)C(=O)O[C@H]1Cc2cc3ccc(=O)oc3cc2OC1(C)C [Decursinol angelate] (10 µM)	0	0	0	0	0	0	0	0	0	0	0	0	0	0	0	0	0	0	0	0
CN(C)Cc1ccc(-c2cnn3c(-c4cccc(NC(=O)c5cccc(C(F)(F)F)c5)c4)ccnc23)cc1 (2.5 µM)	0	0	0	0	0	0	0	0	0	0	0	0	0	0	0	0	0	0	0	0
N#C/C(=C\c1ccc(O)c(O)c1)C(=O)NCc1ccccc1 (10 µM)	0	0	0	0	0	0	0	0	0	0	0	0	0	0	0	0	0	0	0	0

Some of the entries so far, comma-delimited.
SMILES,number of time points (PRKCA),number of time points (PTK2),number of time points (PTK2B),number of time points (RAF1),number of time points [1],number of time points (RET),number of time points [2],number of time points (RIOK1),number of time points (RIPK1),number of time points (RIPK2),number of time points (ROR2),number of time points (RPS6KA1),number of time points (SPHK1),number of time points (SRC),number of time points (STK24),number of time points (STK38),number of time points (SYK),number of time points (TEC),number of time points (TYK2),number of time points (ULK3)
Cc1c(C(=O)N2CCOc3ccc(-c4ccc(N)nc4)cc3C2)ccc(S(C)(=O)=O)c1F (10 µM),0,1,0,0,0,0,2,0,0,0,0,0,0,0,0,0,0,0,0,0
O=C(NOC[C@H](O)CO)c1ccc(F)c(F)c1Nc1ccc(I)cc1F (2.5 µM),0,0,0,0,0,0,0,0,0,0,0,0,0,0,0,0,0,0,0,0
